# Laboratory results as given in paper PMC6950567, “Evaluation of Marine Diindolinonepyrane in Vitro and in Vivo: Permeability Characterization in Caco-2 Cells Monolayer and Pharmacokinetic Properties in Beagle Dogs” (Marine Drugs, 2019).
# Assay: Recovery of 2,5-BHPA from beagle dog plasma (methanol extraction, HPLC)
compound,measurement,setting,value
"CC(C)=CCCC(C)=CCCC1(C)Oc2c(c(O)cc3c2CN(CCCC(C(=O)O)N2Cc4c(cc(O)c5c4OC(C)(CCC=C(C)CCC=C(C)C)C(O)C5)C2=O)C3=O)CC1O (stereo not drawn) [2,5-BHPA, 2,5-Bis-[8-(4,8-dimethyl-nona-3,7-dienyl)-5,7-dihydroxy-8-methyl-3-keto-1,2,7,8-tertahydro-6H-pyran[a]isoindol-2-yl]-pentanoic acid]",Recovery,1.0 μg·mL^−1,98.36 ± 6.38%
same,Recovery,100 μg·mL^−1,102.26 ± 4.69%
same,Recovery,400 μg·mL^−1,96.58 ± 5.61%
